{
  "sequences": {"note": "By UniProt entry, the sequences of proteins in these tests, tags left out. Where a name states a change or a piece, a line headed by the entry shows the natural chain unless it says otherwise.", "UniProt P51450": "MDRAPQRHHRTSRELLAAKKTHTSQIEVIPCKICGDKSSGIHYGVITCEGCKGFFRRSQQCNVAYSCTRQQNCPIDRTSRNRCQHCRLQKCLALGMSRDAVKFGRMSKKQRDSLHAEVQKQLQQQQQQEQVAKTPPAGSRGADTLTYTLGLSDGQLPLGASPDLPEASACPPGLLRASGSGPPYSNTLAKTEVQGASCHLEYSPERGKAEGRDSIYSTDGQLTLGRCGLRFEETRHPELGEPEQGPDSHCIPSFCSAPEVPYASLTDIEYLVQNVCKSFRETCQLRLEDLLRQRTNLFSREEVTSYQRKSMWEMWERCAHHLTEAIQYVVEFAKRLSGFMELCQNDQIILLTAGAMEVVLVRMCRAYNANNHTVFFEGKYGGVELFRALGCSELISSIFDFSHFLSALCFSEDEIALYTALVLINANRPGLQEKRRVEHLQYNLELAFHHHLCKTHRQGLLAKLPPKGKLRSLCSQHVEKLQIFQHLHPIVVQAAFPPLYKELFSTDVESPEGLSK"},
  "source": "PubChem BioAssay AID2551",
  "about": "(National Center for Advancing Translational Sciences (NCATS), 2010)",
  "note": "The campaign covered roughly 310,000 compounds. About 17,000 (5.5%) were called active. The shares of active, inactive and inconclusive entries below differ from those in the screen. Calls follow the shape of the dose curve; as a rule, active = well fitted inhibition curve with a large enough effect; inconclusive = small, poorly fitted or top-dose-only effect, or effect the other way; inactive = no such curve, though single readings can be large or run the other way. Potencies of inconclusive entries are doubtful fits and often do not repeat. Potency is read from the fitted curve at half-maximal effect.",
  "data": [
    {"target": "Nuclear receptor ROR-gamma (Mus musculus) (UniProt P51450)", "assay": "qHTS for inhibitors of ROR gamma transcriptional activity; also: nearly all actives have a fitted effect of over 60% in size", "settings": "Drosophila S2 Gal4-RORgamma UAS-luciferase reporter, 20 h; series mostly up to 53.6 µM", "summary_of_the_method": "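Compounds are pin-transferred onto Drosophila Schneider cells expressing a copper-inducible Gal4–ROR gamma transactivation domain fusion. After 1 hr, copper sulfate is added to 700 uM final; luciferase is read 20 hr later.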", "values": [
      {"smiles": "O=C(NN=C(Cc1ccccc1)Cc1ccccc1)c1ccccc1F", "Potency": "inconclusive: 35.5 µM [inhibitor, single point]"},
      {"smiles": "O=Cc1cccc(OC(=O)/C=C/c2ccco2)c1", "Potency": "inconclusive: 6.31 µM [activator, single point]"},
      {"smiles": "Cc1ccc(O)c(NC(=S)NC(=O)C(C)C)c1", "Potency": "active: 11.2 µM"},
      {"smiles": "Clc1ccc(C[n+]2cc(-c3ccccc3)n3c2CCC3)cc1", "Potency": "inconclusive: 15.8 µM [activator, single point]"},
      {"smiles": "O=C(NC(=S)Nc1cccc([N+](=O)[O-])c1)c1ccco1", "Potency": "inactive"},
      {"smiles": "COc1ccc(N2C(=O)CC(C#N)=C2N)cc1", "Potency": "inconclusive: 15.8 µM [inhibitor, single point]"},
      {"smiles": "COCCNC(=O)c1ccc(Cn2c(SCC(=O)NCC3CCCO3)nc3ccc(Br)cc3c2=O)cc1", "note": "(centres undefined)", "Potency": "inactive"},
      {"smiles": "CCCn1c(C)nc2c(NCCN3CCOCC3)nc(C)nc21", "Potency": "inactive"},
      {"smiles": "COC(=O)c1ccc(C(NC(=O)OCc2ccccc2)/C(C)=C/[C@@H](C)C(=O)NCc2ccc(-c3ccccc3)cc2)cc1", "note": "(some centres undefined)", "Potency": "inconclusive: 11.2 µM [activator, partial curve]"},
      {"smiles": "CC(C)CC1(C)NC(=O)N(CC(=O)Nc2ccc3c(c2)CCC3)C1=O", "note": "(centres undefined)", "Potency": "inconclusive: 0.1 µM [activator, full curve, poor fit]"},
      {"smiles": "Cn1cccc1C(=O)NC(=O)COC(=O)C12CC3CC(CC(O)(C3)C1)C2", "Potency": "inconclusive: 31.6 µM [inhibitor, single point]"},
      {"smiles": "CCOC(=O)c1c(NC(=O)c2cccc(N3C(=O)CCC3=O)c2)sc(C)c1C", "Potency": "inconclusive: 22.4 µM [activator, single point]"},
      {"smiles": "COc1ccc2[nH]c(=O)c(CN(Cc3ccco3)C(c3nnnn3Cc3ccccc3)C(C)C)cc2c1", "note": "(centres undefined)", "Potency": "inconclusive: 35.5 µM [activator, single point]"},
      {"smiles": "Cc1ccc(-c2csc(NC(=O)CN3CCOCC3)n2)cc1C", "Potency": "inactive"},
      {"smiles": "CN(c1ccccc1)S(=O)(=O)c1ccc(C(=O)Nc2nnc(-c3ccco3)o2)cc1", "Potency": "active: 0.708 µM"},
      {"smiles": "CC(=O)c1sc(NC(=O)c2ccco2)nc1-c1ccccc1", "Potency": "inconclusive: 1.41 µM [activator, full curve, poor fit]"},
      {"smiles": "CC(C)CN1CCN(CC#Cc2ccccc2)CC1CCO", "note": "(centres undefined)", "Potency": "inactive"},
      {"smiles": "CCSc1nnc(NC(=O)c2csc3c2CCC(C)C3)s1", "note": "(centres undefined)", "Potency": "inactive"},
      {"smiles": "COc1cccc(NC(=O)c2sc3nc4n(c(=O)c3c2C)CCC4)c1", "Potency": "inconclusive: 35.5 µM [activator, single point]"},
      {"smiles": "COc1ccc(S(=O)(=O)N2CCCc3ccccc32)cc1[N+](=O)[O-]", "Potency": "inconclusive: 22.4 µM [activator, single point]"},
      {"smiles": "N#Cc1c(N)[nH]c(=S)c(C#N)c1-c1ccccc1", "Potency": "active: 10 µM"},
      {"smiles": "Nc1nc(Nc2cccc(F)c2)nc(N2CCOCC2)c1[N+](=O)[O-]", "Potency": "inconclusive: 6.31 µM [activator, full curve, poor fit]"},
      {"smiles": "O=S(=O)(CCSc1nc2ccccc2s1)c1nc2ccccc2s1", "Potency": "active: 7.08 µM"},
      {"smiles": "CC(=O)Nc1nc2ccc(-c3nc4ccccc4o3)cc2s1", "Potency": "inconclusive: 5.62 µM [activator, single point]"},
      {"smiles": "Cc1cc(C2=NNC(=NC3CC3)SC2)c(C)n1-c1c(C)n(C)n(-c2ccccc2)c1=O", "Potency": "inconclusive: 8.91 µM [inhibitor, partial curve]"},
      {"smiles": "COc1ccc2[nH]cc(C(=O)CN3CC(C)CC(C)C3)c2c1", "note": "(centres undefined)", "Potency": "inactive"},
      {"smiles": "CCOC(=O)C1CCCN(C(=O)Cn2nc(C)c3c(C)n(-c4ccccc4)nc3c2=O)C1", "note": "(centres undefined)", "Potency": "inactive"},
      {"smiles": "CCc1nnc(NC(=O)CSc2nc(C)c3c(c2C#N)CCCC3)s1", "Potency": "inconclusive: 22.4 µM [inhibitor, single point]"},
      {"smiles": "CS(=O)(=O)c1cccc(C(=O)NC(c2ccccc2)c2ccccc2)c1", "Potency": "inconclusive: 12.6 µM [activator, single point]"},
      {"smiles": "COc1cccc(NC(=O)CSc2ccc(-c3ccco3)nn2)c1", "Potency": "inactive"},
      {"smiles": "CCOC(=O)N1CCN(C(=O)c2cc3sccc3n2C)CC1", "Potency": "inconclusive: 35.5 µM [inhibitor, single point]"},
      {"smiles": "COc1ccccc1C(N)=S", "Potency": "active: 15.8 µM"},
      {"smiles": "CC(C(=O)O)n1cc(Cl)cn1", "note": "(centres undefined)", "Potency": "inactive"},
      {"smiles": "COc1ccc(-c2nnn(CC(=O)NCc3cccs3)n2)cc1OC", "Potency": "inconclusive: 3.55 µM [activator, partial curve]"},
      {"smiles": "CN1C(=O)/C(=C/c2ccc(OCc3ccccc3F)cc2)NC1=S", "Potency": "inconclusive: 1.78 µM [inhibitor, partial curve, poor fit]"},
      {"smiles": "O=CNC(Cc1ccccc1)C(=O)O", "note": "(centres undefined)", "Potency": "inactive"},
      {"smiles": "COc1ccccc1N1CCN(CC(O)COCc2cccs2)CC1", "note": "(centres undefined)", "Potency": "inactive"},
      {"smiles": "COc1cc2nc(CC(C)C)n(NC(=O)c3ccccc3Br)c(=O)c2cc1OC", "Potency": "inactive"},
      {"smiles": "O=c1[nH]nc(CNc2ccc(Cl)cc2Cl)c2ccccc12", "Potency": "inconclusive: 35.5 µM [inhibitor, single point]"},
      {"smiles": "CCOC(=O)n1c(=O)oc2cc(S(=O)(=O)N3CCCCC3)ccc21", "Potency": "inconclusive: 31.6 µM [activator, single point]"},
      {"smiles": "CCC1CCCCN1CCCNC(=O)c1ccc(/C=C2/Sc3ccccc3NC2=O)cc1", "note": "(centres undefined)", "Potency": "inconclusive: 35.5 µM [inhibitor, single point]"},
      {"smiles": "O=C(c1cccc(F)c1)N1CCC2(CCCN(c3ccc(-c4ccccc4)cc3)C2)CC1", "Potency": "inactive"},
      {"smiles": "O=C1Nc2ccccc2Nc2ncccc21", "Potency": "inconclusive: 6.31 µM [activator, single point]"},
      {"smiles": "COc1ccc(CN2CC(=O)N(c3ccc(Cl)cc3)C2=S)cc1OC", "Potency": "inactive"},
      {"smiles": "Cc1ccc2oc(C(=O)Nc3ccc(S(=O)(=O)Nc4onc(C)c4C)cc3)c(C)c2c1", "Potency": "inconclusive: 15.8 µM [activator, single point]"},
      {"smiles": "C=CCc1cccc(C=Nc2cc(Br)ccc2O)c1O", "Potency": "inactive"},
      {"smiles": "CC1=NNC(=O)C1CC(=O)N/N=C/C(Br)=C/c1ccccc1", "note": "(centres undefined)", "Potency": "inactive"},
      {"smiles": "O=S(=O)(c1ccc(F)cc1)c1nc(-c2ccco2)oc1Nc1ccccc1", "Potency": "inconclusive: 14.1 µM [activator, partial curve]"},
      {"smiles": "N#Cc1ccsc1NC(=O)CCc1ccccc1", "Potency": "inconclusive: 1.12 µM [activator, full curve]"}
    ]}
  ]
}
